# Experimental data as given in US10377647B2, “Systems and methods for use of water with switchable ionic strength” (Queen's University at Kingson, priority 2010, dated 2019).
# Values joined by “and” are separate entries in the source; they are usually repeats but may differ in a detail not shown here. Equal values may be shown once. Read-outs that look alike come from different tables or passages of the source.
# Legend:
# [1] = Comparative: primary and secondary amine/water switching; assay type: physicochemical; details: for time of CO2 bubbling until solution separated into two phases / phase recombination on bubbling N2: 3:3:1 v/v/v H2O:amine:THF; for phase recombination on bubbling N2: N2 90 minutes at 50° C.
# [2] = Ceiling salting out limits with inorganic salts
# [3] = Chemical force spectrometry, tip/sample adhesion; details: Silica
# [4] = Chemical force spectrometry, tip/sample adhesion; details: Mica
# [5] = Salting out THF with diamidine; details: 0.80 molal, 1:1 w/w THF:water, 30 min CO2
# [6] = THF separated and additive retained by 1H NMR at different additive loadings; assay type: physicochemical
# [7] = THF separated and additive retained by 1H NMR, 0.80 molal additive; assay type: physicochemical; details: 1:1 w/w THF:H2O, 30 min CO2
# [8] = Salting out THF with methylated spermine
# [9] = Expulsion of THF from water and recovery of water-immiscible additive; details: for additive removed from the aqueous phase after N2 treatment: separated aqueous phase, N2 90 minutes at 60° C.
# [10] = Salting out THF with secondary amine additives; details: for Additive retained in H2O / THF forced out: 1.60 molal, 1:1 w/w THF:water, 30 min CO2; for time of argon bubbling until the two phases recombined: 50° C.
# [11] = Reversible destabilization of a clay-in-water suspension (settling)
# [12] = Hydroformylation of styrene in the presence of switchable water additive; details: 0.8 molal TMDAB, no phosphine added during recycling
# [13] = Removal of water from THF with TMDAB and CO2; details: 30 min CO2
# [14] = Primary amines as additives: salting out THF; details: for phase recombination on bubbling N2: 60° C. water bath, 60 minutes
# [15] = Carboxylic Acid-terminated tip, 1 mM additive (pH 11 ± 0.2)
# [16] = Carboxylic Acid-terminated tip, 1 mM additive + CO2 (pH 5 ± 0.2)
# [17] = Phenyl-terminated tip, 1 mM additive (pH 11 ± 0.2)
# [18] = Phenyl-terminated tip, 1 mM additive + CO2 (pH 5 ± 0.2)
# [19] = run 1, 0.80 molal, 1:1 w/w THF:water, 30 min CO2
# [20] = run 2 (after Ar at 50° C. and repeated CO2)
# [21] = 1.50 g H2O, 1.50 g THF, 0.30 g additive, CO2 45 minutes
smiles,measurement,setting,value
"CNCCO [2-(methylamino)ethanol, 2-(methylamino) ethanol]",time of CO2 bubbling until solution separated into two phases,[1],10 min
same,phase recombination on bubbling N2,[1],did not recombine into one miscible layer
N.N.O=S(=O)(O)O [(NH4)2SO4],% Organic Salted Out,"[2]; Solvent MeCN, about 2 g solvent + 2 g water, salt to constant volume",99 ± 0.1%
same,% Organic Salted Out,"[2]; Solvent THF, about 2 g solvent + 2 g water, salt to constant volume",99 ± 0.6%
CCCCN=C(C)N(C)C [Additive C4],Adhesion Force,[3]; [15],0 nN
same,Adhesion Force,[3]; [16],0.18 ± 0.04 nN
same,Adhesion Force,[3]; [17],0 nN
same,Adhesion Force,[3]; [18],0.07 ± 0.02 nN
same,Adhesion Force,[4]; [15],0.01 ± 0.01 nN
same,Adhesion Force,[4]; [16],1.58 ± 0.18 nN
same,Adhesion Force,[4]; [17],0.01 ± 0.01 nN
same,Adhesion Force,[4]; [18],0.74 ± 0.35 nN
CCCCCCCCN=C(C)N(C)C [Additive C8],Adhesion Force,[3]; [15],0.39 ± 0.20 nN
same,Adhesion Force,[3]; [16],1.53 ± 0.19 nN
same,Adhesion Force,[3]; [17],0.97 ± 0.33 nN
same,Adhesion Force,[3]; [18],1.05 ± 0.38 nN
same,Adhesion Force,[4]; [15],0.23 ± 0.28 nN
same,Adhesion Force,[4]; [16],1.94 ± 0.23 nN
same,Adhesion Force,[4]; [17],1.97 ± 0.19 nN
same,Adhesion Force,[4]; [18],0.41 ± 0.20 nN
"C/C(=N\CCCC/N=C(\C)N(C)C)N(C)C [DIAC, N′,N″-(butane-1,4-diyl)bis(N,N-dimethylacetimidamide)]",THF forced out of the aqueous phase,[5],54.5%
same,additive retained in the aqueous phase,[5],99.5%
CC(O)CN(CCCN(C)C)CCCN(C)C (centres unmarked) [DMAPAP],% Additive Retained,[6]; THF:H2O:Additive 3:3:1 w/w/w,87.1 ± 7.3%
same,% THF Separated,[6]; THF:H2O:Additive 3:3:1 w/w/w,78 ± 6.1%
same,% Additive Retained,[6]; THF:H2O:Additive 5:5:1 w/w/w,98.4 ± 0.4%
same,% THF Separated,[6]; THF:H2O:Additive 5:5:1 w/w/w,81 ± 1.0%
same,% Additive Retained,[6]; THF:H2O:Additive 10:10:1 w/w/w,96.0 ± 0.8%
same,% THF Separated,[6]; THF:H2O:Additive 10:10:1 w/w/w,69 ± 1.4%
same,% Additive Retained,[6]; THF:H2O:Additive 15:15:1 w/w/w,94.4 ± 1.1%
same,% THF Separated,[6]; THF:H2O:Additive 15:15:1 w/w/w,62 ± 1.1%
same,% Additive Retained,[7],98.8 ± 0.4%
same,% THF Separated,[7],79 ± 1.2%
"CN(C)CCN(C)CCN(C)CCN(C)C [HMTETA, 1,1,4,7,10,10-hexamethyl triethylenetetramine]",% Additive Retained,[6]; THF:H2O:Additive 3:3:1 w/w/w,95.6 ± 1.5%
same,% THF Separated,[6]; THF:H2O:Additive 3:3:1 w/w/w,80 ± 4.0%
same,% Additive Retained,[6]; THF:H2O:Additive 5:5:1 w/w/w,98.4 ± 1.2%
same,% THF Separated,[6]; THF:H2O:Additive 5:5:1 w/w/w,80 ± 3.0%
same,% Additive Retained,[6]; THF:H2O:Additive 10:10:1 w/w/w,98.0 ± 1.0%
same,% THF Separated,[6]; THF:H2O:Additive 10:10:1 w/w/w,70 ± 1.3%
same,% Additive Retained,[6]; THF:H2O:Additive 15:15:1 w/w/w,98.2 ± 0.3%
same,% THF Separated,[6]; THF:H2O:Additive 15:15:1 w/w/w,65 ± 4.9%
same,% Additive Retained,[7],99.3 ± 0.4%
same,% THF Separated,[7],78 ± 0.9%
"CN(C)CCCN(C)CCCCN(C)CCCN(C)C [MeSpe, N^1,N^1′-(butane-1,4-diyl)bis(N^1,N^3,N^3-trimethylpropane-1,3-diamine)]",Additive retained in THF,[8]; [19],99.85%
same,THF forced out,[8]; [19],84.3%
same,Additive retained in THF,[8]; [20],99.79%
same,THF forced out,[8]; [20],85.5%
"CCCN(CC)CCCCN(CC)CCC [N,N′-diethyl-N,N′-dipropyl-1,4-diaminobutane]",THF removed from the aqueous phase after CO2 treatment,[9]; [21],68%
same,additive removed from the aqueous phase after N2 treatment,[9],81%
CC(C)(C)NCCO [N-tert-butylethanolamine],Additive retained in H2O,[10],99.84 ± 0.04%
same,THF forced out,[10],68.7 ± 0.4%
same,time of argon bubbling until the two phases recombined,[10]; Ar 5 mL/min,30 min
CNC(C)(C)C [N-tert-butymethylamine],Additive retained in H2O,[10],99.75 ± 0.04%
same,THF forced out,[10],67.6 ± 0.8%
same,time of argon bubbling until the two phases recombined,[10]; higher Ar flow rate of 15 mL/min,120 min
[Cl-].[Na+] [NaCl],% Organic Salted Out,[2],98 ± 0.5% and 93 ± 1.0%
"CCN(CC)CCCCN(CC)CC [TEDAB, N,N,N′,N′-tetraethyl-1,4-diaminobutane]",THF removed from the aqueous phase after CO2 treatment,[9]; [21],77.2±3.5%
same,additive residing in the aqueous phase after CO2 treatment,[9]; [21],91.1±3.7%
same,overall total THF removed from the aqueous phase at the end of the procedure,[9]; after CO2 and N2 steps,90.0±2.1%
same,additive removed from the aqueous phase after N2 treatment,[9],49.3±6.3%
"CN(C)CCCCN(C)C [TMDAB, N,N,N′,N′-tetramethyl-1,4-diaminobutane]",% Additive Retained,[6]; THF:H2O:Additive 3:3:1 w/w/w,87.1 ± 2.1%
same,% THF Separated,[6]; THF:H2O:Additive 3:3:1 w/w/w,87 ± 1.3%
same,% Additive Retained,[6]; THF:H2O:Additive 5:5:1 w/w/w,99.6% and 99.6 ± 0.1%
same,% THF Separated,[6]; THF:H2O:Additive 5:5:1 w/w/w,87% and 87 ± 0.6%
same,% Additive Retained,[6]; THF:H2O:Additive 10:10:1 w/w/w,99.4 ± 0.1%
same,% THF Separated,[6]; THF:H2O:Additive 10:10:1 w/w/w,80 ± 0.5%
same,% Additive Retained,[6]; THF:H2O:Additive 15:15:1 w/w/w,98.4 ± 0.4%
same,% THF Separated,[6]; THF:H2O:Additive 15:15:1 w/w/w,74% and 74 ± 0.9%
same,settling behaviour of kaolinite clay,[11]; 1 mM TMDAB treated 1 hour with CO2,settling of clay with a clean supernatant and a clear sediment line
same,settling behaviour of kaolinite clay,"[11]; 1 mM TMDAB, 1 hour CO2 followed by 1 hour N2",stable suspension
same,settling behaviour of kaolinite clay,"[11]; 5 g clay in 100 mL 1 mM TMDAB, no CO2",stable suspension
same,% Aldehyde Selectivity,[12]; Cycle 1,87.7%
same,% Conversion,[12]; Cycle 1,85.2%
same,B/L,[12]; Cycle 1,7.7
same,% Aldehyde Selectivity,[12]; Cycle 2,87.3%
same,% Conversion,[12]; Cycle 2,43.8%
same,B/L,[12]; Cycle 2,5.4
same,% Aldehyde Selectivity,[12]; Cycle 3,85.2%
same,% Conversion,[12]; Cycle 3,8.9%
same,B/L,[12]; Cycle 3,4.6
same,% Additive Retained,[7],99.2 ± 0.4%
same,% THF Separated,[7],82 ± 0.6%
same,TMDAB in the dried organic THF phase,[13]; start 1.3 mol % TMDAB,0.3 mol %
same,H2O in the dried organic THF phase,"[13]; start 65.6 mol % THF, 33.1 mol % H2O, 1.3 mol % TMDAB",20.5 mol %
NCCO [ethanolamine],time of CO2 bubbling until two liquid phases were observed,[14]; 5:5:1 H2O:THF:amine,20 min
same,THF forced out of the aqueous phase,"[14]; 5:5:1 H2O:THF:amine, CO2 20 minutes",~62%
same,phase recombination on bubbling N2,[14],the two phases did not recombine
same,phase separation on bubbling CO2,"[1]; 3:3:1 v/v/v H2O:amine:DMSO, CO2 120 minutes",did not separate into two phases
same,time of CO2 bubbling until solution separated into two phases,[1],30 min
same,phase recombination on bubbling N2,[1],did not recombine into one miscible layer
NCCN [ethylenediamine],time of CO2 bubbling until two liquid phases were observed,[14]; 18:18:1 H2O:THF:amine,10 min
same,THF forced out of the aqueous phase,"[14]; 18:18:1 H2O:THF:amine, CO2 10 minutes",~67%
same,phase recombination on bubbling N2,[14],the two phases did not recombine
